Laboratory results from the supplement of paper PMC10849652.
This is one part of the list.

Protein sequences, listed by entry. Tags and fused reporters are not part of them. Lines headed by an entry give the natural chain unless they say otherwise; changes in a name come on top.
UniProt P56377: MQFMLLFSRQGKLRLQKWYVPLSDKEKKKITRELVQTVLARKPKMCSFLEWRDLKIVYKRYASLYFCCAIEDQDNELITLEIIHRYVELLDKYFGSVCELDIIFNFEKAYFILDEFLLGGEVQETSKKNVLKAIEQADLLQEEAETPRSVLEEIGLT
UniProt O75179: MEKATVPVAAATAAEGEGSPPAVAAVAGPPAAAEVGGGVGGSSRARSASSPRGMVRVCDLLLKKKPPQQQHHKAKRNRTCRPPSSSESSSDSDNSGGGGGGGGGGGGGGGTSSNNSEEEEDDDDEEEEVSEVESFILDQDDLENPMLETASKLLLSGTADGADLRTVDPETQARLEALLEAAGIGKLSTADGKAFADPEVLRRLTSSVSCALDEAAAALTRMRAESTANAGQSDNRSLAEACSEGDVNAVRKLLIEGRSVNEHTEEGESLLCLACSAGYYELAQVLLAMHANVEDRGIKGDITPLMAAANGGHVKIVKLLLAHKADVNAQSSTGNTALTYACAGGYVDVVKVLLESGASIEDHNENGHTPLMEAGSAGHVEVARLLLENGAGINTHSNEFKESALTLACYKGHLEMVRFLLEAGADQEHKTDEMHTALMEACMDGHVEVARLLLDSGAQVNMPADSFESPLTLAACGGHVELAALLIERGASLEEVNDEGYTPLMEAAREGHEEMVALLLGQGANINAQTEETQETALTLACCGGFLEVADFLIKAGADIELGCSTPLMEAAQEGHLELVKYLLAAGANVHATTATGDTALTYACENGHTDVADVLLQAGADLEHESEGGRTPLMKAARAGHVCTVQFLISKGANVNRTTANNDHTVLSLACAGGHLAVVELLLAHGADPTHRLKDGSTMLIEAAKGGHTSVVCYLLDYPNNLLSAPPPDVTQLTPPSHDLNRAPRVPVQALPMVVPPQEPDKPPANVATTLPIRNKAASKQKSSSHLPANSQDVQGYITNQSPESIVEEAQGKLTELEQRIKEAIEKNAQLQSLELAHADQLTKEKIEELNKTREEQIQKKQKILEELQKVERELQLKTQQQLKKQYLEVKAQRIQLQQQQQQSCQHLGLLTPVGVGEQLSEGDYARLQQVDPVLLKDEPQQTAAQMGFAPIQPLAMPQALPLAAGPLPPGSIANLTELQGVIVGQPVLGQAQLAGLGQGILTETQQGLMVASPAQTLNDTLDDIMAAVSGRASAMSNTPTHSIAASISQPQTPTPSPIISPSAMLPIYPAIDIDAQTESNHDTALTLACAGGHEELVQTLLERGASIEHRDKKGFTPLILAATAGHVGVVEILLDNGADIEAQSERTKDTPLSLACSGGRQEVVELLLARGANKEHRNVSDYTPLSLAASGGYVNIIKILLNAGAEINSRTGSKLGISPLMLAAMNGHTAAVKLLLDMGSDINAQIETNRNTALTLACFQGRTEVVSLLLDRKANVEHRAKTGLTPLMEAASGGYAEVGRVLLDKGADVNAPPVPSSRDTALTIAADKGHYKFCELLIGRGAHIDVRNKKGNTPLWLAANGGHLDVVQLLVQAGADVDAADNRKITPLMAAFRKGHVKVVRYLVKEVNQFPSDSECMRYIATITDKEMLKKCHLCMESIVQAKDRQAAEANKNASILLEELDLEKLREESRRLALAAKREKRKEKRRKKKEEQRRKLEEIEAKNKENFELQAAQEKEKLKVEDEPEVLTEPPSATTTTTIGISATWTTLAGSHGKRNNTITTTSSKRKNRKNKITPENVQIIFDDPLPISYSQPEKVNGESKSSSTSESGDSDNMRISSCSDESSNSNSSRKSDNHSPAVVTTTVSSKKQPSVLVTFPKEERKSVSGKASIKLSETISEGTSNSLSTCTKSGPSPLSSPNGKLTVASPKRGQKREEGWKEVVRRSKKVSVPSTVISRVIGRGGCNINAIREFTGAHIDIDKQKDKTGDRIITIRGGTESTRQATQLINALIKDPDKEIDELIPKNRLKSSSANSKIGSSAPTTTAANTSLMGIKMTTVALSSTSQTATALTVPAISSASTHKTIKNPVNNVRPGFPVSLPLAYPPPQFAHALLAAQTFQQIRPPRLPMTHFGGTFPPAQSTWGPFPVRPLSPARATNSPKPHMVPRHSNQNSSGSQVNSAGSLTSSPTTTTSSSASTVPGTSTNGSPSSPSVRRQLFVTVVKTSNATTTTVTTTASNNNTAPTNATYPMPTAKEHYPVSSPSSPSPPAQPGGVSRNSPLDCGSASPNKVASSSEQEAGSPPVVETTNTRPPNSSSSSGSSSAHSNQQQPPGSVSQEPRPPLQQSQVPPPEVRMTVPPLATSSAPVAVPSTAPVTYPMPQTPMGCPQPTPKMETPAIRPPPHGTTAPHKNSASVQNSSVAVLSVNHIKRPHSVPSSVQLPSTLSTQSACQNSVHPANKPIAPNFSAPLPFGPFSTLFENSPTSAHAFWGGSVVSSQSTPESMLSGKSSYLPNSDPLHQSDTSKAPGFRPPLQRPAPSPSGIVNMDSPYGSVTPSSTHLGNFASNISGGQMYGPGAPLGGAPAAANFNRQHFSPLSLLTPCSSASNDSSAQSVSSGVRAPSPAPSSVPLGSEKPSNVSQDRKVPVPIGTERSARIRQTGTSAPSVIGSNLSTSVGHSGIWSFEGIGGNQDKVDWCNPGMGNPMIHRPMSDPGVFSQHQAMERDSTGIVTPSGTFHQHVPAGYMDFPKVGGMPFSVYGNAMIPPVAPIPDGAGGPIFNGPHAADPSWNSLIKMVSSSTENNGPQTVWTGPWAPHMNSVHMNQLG
UniProt Q86W34: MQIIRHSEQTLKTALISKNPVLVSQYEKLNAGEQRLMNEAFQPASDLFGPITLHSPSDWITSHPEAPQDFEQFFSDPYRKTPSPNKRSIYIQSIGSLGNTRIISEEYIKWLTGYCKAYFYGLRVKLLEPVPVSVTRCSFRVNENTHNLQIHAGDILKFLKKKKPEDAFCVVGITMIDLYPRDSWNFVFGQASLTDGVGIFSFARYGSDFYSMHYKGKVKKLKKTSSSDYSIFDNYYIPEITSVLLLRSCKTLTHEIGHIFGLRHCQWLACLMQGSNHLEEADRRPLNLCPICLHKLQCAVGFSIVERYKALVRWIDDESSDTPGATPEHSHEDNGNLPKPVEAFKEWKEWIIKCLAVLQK
UniProt P09525: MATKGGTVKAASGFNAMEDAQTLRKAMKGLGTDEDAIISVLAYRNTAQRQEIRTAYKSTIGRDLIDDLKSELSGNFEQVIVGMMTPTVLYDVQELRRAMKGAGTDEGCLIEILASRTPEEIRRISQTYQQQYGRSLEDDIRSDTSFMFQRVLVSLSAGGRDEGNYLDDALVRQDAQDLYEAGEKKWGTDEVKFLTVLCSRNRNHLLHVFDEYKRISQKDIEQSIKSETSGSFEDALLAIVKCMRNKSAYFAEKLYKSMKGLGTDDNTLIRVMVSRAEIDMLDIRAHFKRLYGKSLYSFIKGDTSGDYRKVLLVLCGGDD
UniProt Q9UPM8: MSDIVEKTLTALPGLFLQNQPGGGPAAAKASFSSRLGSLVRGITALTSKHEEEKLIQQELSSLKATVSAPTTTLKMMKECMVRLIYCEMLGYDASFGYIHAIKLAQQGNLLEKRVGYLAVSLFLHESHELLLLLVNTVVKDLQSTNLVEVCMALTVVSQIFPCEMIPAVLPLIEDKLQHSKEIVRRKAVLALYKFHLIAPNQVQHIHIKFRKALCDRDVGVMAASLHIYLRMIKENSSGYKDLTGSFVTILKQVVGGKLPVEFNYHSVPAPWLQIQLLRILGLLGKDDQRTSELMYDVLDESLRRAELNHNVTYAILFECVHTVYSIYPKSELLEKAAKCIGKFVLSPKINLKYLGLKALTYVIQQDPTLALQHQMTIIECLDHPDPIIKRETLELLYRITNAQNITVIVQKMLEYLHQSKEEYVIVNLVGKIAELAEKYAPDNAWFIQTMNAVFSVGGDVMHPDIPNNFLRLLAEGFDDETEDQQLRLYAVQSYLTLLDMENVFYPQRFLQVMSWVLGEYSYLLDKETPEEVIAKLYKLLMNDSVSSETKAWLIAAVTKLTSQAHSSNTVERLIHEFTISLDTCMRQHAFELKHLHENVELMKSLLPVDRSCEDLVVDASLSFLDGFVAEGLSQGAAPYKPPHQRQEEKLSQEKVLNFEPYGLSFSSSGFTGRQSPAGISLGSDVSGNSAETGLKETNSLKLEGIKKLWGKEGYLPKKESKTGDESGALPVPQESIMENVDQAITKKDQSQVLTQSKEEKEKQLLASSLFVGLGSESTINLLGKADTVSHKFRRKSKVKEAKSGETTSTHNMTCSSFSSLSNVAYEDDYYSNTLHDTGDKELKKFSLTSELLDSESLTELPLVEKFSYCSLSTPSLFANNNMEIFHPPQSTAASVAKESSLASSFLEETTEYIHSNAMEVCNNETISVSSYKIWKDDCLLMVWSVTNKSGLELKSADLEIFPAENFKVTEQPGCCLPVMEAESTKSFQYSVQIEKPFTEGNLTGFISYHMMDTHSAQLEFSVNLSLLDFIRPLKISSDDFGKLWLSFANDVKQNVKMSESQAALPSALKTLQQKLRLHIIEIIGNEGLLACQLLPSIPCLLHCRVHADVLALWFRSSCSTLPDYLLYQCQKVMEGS
UniProt Q02252: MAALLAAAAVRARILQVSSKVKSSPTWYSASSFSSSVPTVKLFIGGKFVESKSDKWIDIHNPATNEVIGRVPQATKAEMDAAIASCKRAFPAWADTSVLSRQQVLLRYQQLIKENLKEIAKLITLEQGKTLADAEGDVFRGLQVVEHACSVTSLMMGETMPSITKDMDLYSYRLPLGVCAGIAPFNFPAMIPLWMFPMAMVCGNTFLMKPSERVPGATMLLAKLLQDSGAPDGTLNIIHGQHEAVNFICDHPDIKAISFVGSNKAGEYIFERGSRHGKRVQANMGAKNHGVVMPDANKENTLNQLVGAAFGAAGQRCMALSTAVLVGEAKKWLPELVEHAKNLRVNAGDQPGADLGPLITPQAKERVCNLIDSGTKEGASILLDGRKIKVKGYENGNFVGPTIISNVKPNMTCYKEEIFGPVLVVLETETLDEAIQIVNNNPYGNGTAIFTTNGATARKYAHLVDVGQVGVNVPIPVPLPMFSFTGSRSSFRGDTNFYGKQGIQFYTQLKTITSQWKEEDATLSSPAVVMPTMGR
UniProt Q3KRA9: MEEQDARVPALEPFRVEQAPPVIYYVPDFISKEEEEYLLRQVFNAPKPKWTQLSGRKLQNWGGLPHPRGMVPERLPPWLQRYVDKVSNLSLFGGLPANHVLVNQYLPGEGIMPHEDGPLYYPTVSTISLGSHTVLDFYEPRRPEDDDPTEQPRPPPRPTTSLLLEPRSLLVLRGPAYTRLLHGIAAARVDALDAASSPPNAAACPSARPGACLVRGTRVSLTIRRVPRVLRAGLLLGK
UniProt Q86SJ2: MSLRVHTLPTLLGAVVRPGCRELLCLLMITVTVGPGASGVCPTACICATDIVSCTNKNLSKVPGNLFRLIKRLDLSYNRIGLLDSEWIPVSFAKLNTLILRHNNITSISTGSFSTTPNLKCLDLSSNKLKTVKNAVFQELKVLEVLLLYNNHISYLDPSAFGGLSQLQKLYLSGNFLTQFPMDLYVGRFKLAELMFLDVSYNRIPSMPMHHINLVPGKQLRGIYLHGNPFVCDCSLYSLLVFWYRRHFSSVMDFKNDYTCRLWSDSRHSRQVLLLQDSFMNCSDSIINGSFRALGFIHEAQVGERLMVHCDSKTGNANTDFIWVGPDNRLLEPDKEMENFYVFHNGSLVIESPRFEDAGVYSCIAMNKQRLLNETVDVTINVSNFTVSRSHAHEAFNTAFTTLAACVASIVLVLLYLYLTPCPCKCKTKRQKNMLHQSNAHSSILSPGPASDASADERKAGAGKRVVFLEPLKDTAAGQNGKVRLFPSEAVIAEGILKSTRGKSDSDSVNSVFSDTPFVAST
UniProt Q9BS18, whole entry, looked up: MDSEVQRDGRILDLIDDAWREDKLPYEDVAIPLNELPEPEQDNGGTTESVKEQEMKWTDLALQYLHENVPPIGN
UniProt Q9HCJ1: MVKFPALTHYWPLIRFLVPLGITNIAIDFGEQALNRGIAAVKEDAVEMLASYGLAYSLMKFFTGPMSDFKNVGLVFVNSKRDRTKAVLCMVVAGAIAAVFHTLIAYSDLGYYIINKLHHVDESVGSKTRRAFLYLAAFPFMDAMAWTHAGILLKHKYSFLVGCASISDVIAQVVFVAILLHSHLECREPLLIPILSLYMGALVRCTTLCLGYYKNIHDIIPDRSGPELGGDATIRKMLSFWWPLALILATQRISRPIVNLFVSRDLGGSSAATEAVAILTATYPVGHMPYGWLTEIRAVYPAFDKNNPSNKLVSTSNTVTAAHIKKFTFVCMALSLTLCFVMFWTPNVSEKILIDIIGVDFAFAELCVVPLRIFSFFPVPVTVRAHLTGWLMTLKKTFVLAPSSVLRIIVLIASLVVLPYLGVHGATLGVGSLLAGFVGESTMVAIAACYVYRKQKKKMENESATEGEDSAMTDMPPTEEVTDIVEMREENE

What was measured:
Experiment in all cases: log2 fold change, soluble protein after heating vs DMSO (PISA); higher = thermal stabilisation; K562 lysate, 10 uM; active = over 0.2 and 3.5 SD of the protein, either way, in both replicates (recomputed)
vemurafenib = compound: CCCS(=O)(=O)Nc1ccc(F)c(C(=O)c2c[nH]c3ncc(-c4ccc(Cl)cc4)cc23)c1F [vemurafenib]
How it was run: (§1)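 The values are log-two fold changes in thermal stability compared with solvent controls and come from duplicates. They were obtained by TMTpro 16plex LC-MS/MS, with channel sums equalised, on the supernatant after 21,000xg for 90 min. That supernatant came from crude K562 extract at 1 mg/mL protein treated with 10 μM compound for 30 min, heated for 3 min across 48°C-58°C, pooled and brought to 0.5% NP-40 at 4°C.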

[1] = compound: CCCS(=O)(=O)Nc1ccc(F)c(C(=O)c2c[nH]c3ncc(Cl)cc23)c1F
How it was run: as §1

barasertib = compound: CCN(CCCOc1ccc2c(Nc3cc(CC(=O)Nc4cccc(F)c4)[nH]n3)ncnc2c1)CCOP(=O)(O)O [barasertib]
How it was run: as §1

[2] = compound: CC[C@@H]1C(=O)N(C)c2cnc(Nc3ccc(C(=O)NC4CCN(C)CC4)cc3OC)nc2N1C1CCCC1
How it was run: as §1

volasertib = compound: CC[C@@H]1C(=O)N(C)c2cnc(Nc3ccc(C(=O)N[C@H]4CC[C@H](N5CCN(CC6CC6)CC5)CC4)cc3OC)nc2N1C(C)C [volasertib]
How it was run: as §1

[3] = compound: CCn1c(C(=O)N(C2CC2)C2CC2)cc2c3c(ncn3C)c(Nc3cc(C)n(C)n3)nc21
How it was run: as §1

[4] = compound: CCn1cc(-c2ccnc3[nH]c(-c4cccc(CN(C)C)c4)cc23)c(-c2ccc(NC(=O)N(C)C)cc2)n1
How it was run: as §1

[5] = compound: CN1CCC(CNc2ccc3ncc(-c4cccc(OC(F)(F)F)c4)n3n2)CC1
How it was run: as §1

saracatinib = compound: CN1CCN(CCOc2cc(OC3CCOCC3)c3c(Nc4c(Cl)ccc5c4OCO5)ncnc3c2)CC1 [saracatinib]
How it was run: as §1

sotrastaurin = compound: CN1CCN(c2nc(C3=C(c4c[nH]c5ccccc45)C(=O)NC3=O)c3ccccc3n2)CC1 [sotrastaurin]
How it was run: as §1

Row | Target | log2 fold change (vemurafenib) | log2 fold change [1] | log2 fold change (barasertib) | log2 fold change [2] | log2 fold change (volasertib) | log2 fold change [3] | log2 fold change [4] | log2 fold change [5] | log2 fold change (saracatinib) | log2 fold change (sotrastaurin)
1 | ALG13 (UniProt Q9NP73) | inactive: 0.014 | inactive: 0.015 | inactive: 0.054 | inactive: 0.041 | inactive: -0.041 | inactive: -0.016 | inactive: -0.14 | inactive: 0.086 | inactive: 0.023 | inactive: 0.017
2 | AP1S2 (UniProt P56377) | inactive: -0.033 | inactive: 0.069 | inactive: 0.158 | inactive: -0.239 | inactive: 0.009 | inactive: 0.104 | inactive: 0.223 | inactive: -0.287 |  | inactive: -0.029
3 | ANP32E (UniProt Q9BTT0) | inactive: -0.012 | inactive: 0.004 | inactive: -0.064 | inactive: 0.059 | inactive: -0.001 | inactive: -0.011 | inactive: -0.058 | inactive: 0.024 | inactive: 0.028 | inactive: -0.023
4 | ANKRD27 (UniProt Q96NW4) | inactive: -0.016 | inactive: 0.006 | inactive: 0.043 | inactive: 0.01 | inactive: -0.075 | inactive: 0.001 | inactive: -0.042 | inactive: -0.073 | inactive: 0.054 | inactive: -0.002
5 | ALDH2 (UniProt P05091) | inactive: -0.083 | inactive: 0.011 | inactive: -0.012 | inactive: -0.012 | inactive: -0.017 | inactive: -0.011 | inactive: 0.007 | inactive: -0.009 | inactive: 0.012 | inactive: 0
6 | ALDH4A1 (UniProt P30038) | inactive: -0.042 | inactive: 0.02 | inactive: -0.021 | inactive: 0.008 | inactive: -0.092 | inactive: -0.006 | inactive: -0.023 | inactive: -0.029 | inactive: -0.098 | inactive: 0.051
7 | ANKRD17 (UniProt O75179) | inactive: 0.021 | inactive: 0.025 | inactive: 0.049 | inactive: 0.002 | inactive: -0.05 | inactive: 0.023 | inactive: -0.084 | inactive: 0.063 | inactive: 0.001 | inactive: 0.004
8 | AP1AR (UniProt Q63HQ0) | inactive: 0.031 | inactive: -0.016 | inactive: -0.025 | inactive: 0.055 | inactive: -0.009 | inactive: 0.017 | inactive: 0.017 | inactive: -0.044 |  | inactive: 0.059
9 | AMZ2 (UniProt Q86W34) | inactive: 0.053 | inactive: 0.051 | inactive: -0.076 | inactive: 0.044 | inactive: -0.071 | inactive: -0.015 |  |  | inactive: 0.049 | inactive: 0.034
10 | ALG3 (UniProt Q92685) | inactive: 0.084 | inactive: -0.011 | inactive: 0.031 | inactive: 0.012 | inactive: 0.01 | inactive: 0.032 | inactive: -0.371 | inactive: 0.06 | inactive: 0.068 | inactive: 0.029
11 | AP3M1 (UniProt Q9Y2T2) | inactive: -0.03 | inactive: 0.017 | inactive: 0.028 | inactive: -0.01 | inactive: 0.016 | inactive: 0.012 | inactive: -0.063 | inactive: -0.002 | inactive: -0.013 | inactive: -0.004
12 | ANXA4 (UniProt P09525) | inactive: -0.025 | inactive: 0 | inactive: 0.011 | inactive: -0.05 | inactive: -0.02 | inactive: 0.004 | inactive: -0.048 | inactive: -0.005 | inactive: 0.021 | inactive: 0.025
13 | AP4E1 (UniProt Q9UPM8) | inactive: -0.039 | inactive: 0.047 | inactive: 0.041 | inactive: -0.07 | inactive: -0.042 | inactive: -0.007 | inactive: -0.091 | inactive: 0.019 | inactive: 0.014 | inactive: 0.005
14 | ALDH6A1 (UniProt Q02252) | inactive: 0.055 | inactive: 0.027 | inactive: 0.043 | inactive: -0.009 | inactive: -0.025 | inactive: 0.015 | inactive: -0.111 | inactive: 0.022 | active: -0.324 | inactive: -0.082
15 | ANAPC10 (UniProt Q9UM13) | inactive: 0.022 | inactive: 0.011 | inactive: -0.012 | inactive: 0.068 | inactive: -0.012 | inactive: -0.027 | inactive: 0 | inactive: 0.034 | inactive: 0.046 | inactive: 0.009
16 | ALDH9A1 (UniProt P49189) | inactive: 0.174 |  | inactive: -0.109 |  |  | inactive: -0.014 |  |  | inactive: -0.067 | inactive: 0.008
17 | AP3D1 isoform 2 (UniProt O14617) | inactive: 0.002 | inactive: -0.085 |  |  | inactive: -0.012 |  | inactive: -0.231 | inactive: 0.058 |  | 

Record cards (already shown). Order of values: log2 fold change (vemurafenib)	log2 fold change [1]	log2 fold change (barasertib)	log2 fold change [2]	log2 fold change (volasertib)	log2 fold change [3]	log2 fold change [4]	log2 fold change [5]	log2 fold change (saracatinib)	log2 fold change (sotrastaurin)
ANAPC10 (UniProt Q9UM13) in the list: inactive: 0.022	inactive: 0.011	inactive: -0.012	inactive: 0.068	inactive: -0.012	inactive: -0.027	inactive: 0	inactive: 0.034	inactive: 0.046	inactive: 0.009
ANKRD17 (UniProt O75179) in the list: inactive: 0.021	inactive: 0.025	inactive: 0.049	inactive: 0.002	inactive: -0.05	inactive: 0.023	inactive: -0.084	inactive: 0.063	inactive: 0.001	inactive: 0.004

The listing continues:

Row | Target | log2 fold change (vemurafenib) | log2 fold change [1] | log2 fold change (barasertib) | log2 fold change [2] | log2 fold change (volasertib) | log2 fold change [3] | log2 fold change [4] | log2 fold change [5] | log2 fold change (saracatinib) | log2 fold change (sotrastaurin)
18 | ANKRD10 (UniProt Q9NXR5) | inactive: 0.056 | inactive: -0.035 | inactive: 0.137 |  | inactive: 0.1 | inactive: 0.115 | inactive: -0.19 | inactive: -0.022 | inactive: 0.017 | inactive: 0.01
19 | AMDHD2 (UniProt Q9Y303) | inactive: -0.128 |  |  |  |  |  | inactive: -0.116 | inactive: 0.052 |  | inactive: 0.047
20 | ANKRD44 isoform 2 (UniProt Q8N8A2) | inactive: 0.056 | inactive: 0.019 | inactive: 0.058 | inactive: -0.308 | inactive: 0.054 |  | active: -1.9 | inactive: 0.616 |  | 
21 | ALDH18A1 isoform 2 (UniProt P54886) | inactive: 0.308 |  |  |  |  | inactive: 0.043 |  |  | inactive: 0.13 | inactive: 0.121
22 | ANXA2 (UniProt H0YL33) |  | inactive: 0.012 | inactive: 0.37 |  | inactive: 0.136 | inactive: 0.012 | active: 0.643 | inactive: -0.416 | inactive: 0.088 | inactive: 0.214
23 | ANKRD31 (UniProt Q8N7Z5) |  | inactive: 0.025 | inactive: 0.076 | inactive: -0.024 | inactive: -0.011 |  |  |  | inactive: 0.026 | inactive: -0.038
24 | ANKLE2 (UniProt Q86XL3) | inactive: 0.001 |  | inactive: 0.059 | inactive: 0.022 |  | inactive: 0.029 | inactive: 0.01 | inactive: -0.032 | inactive: 0.008 | inactive: -0.063
25 | ALDOA (UniProt H3BPS8) | inactive: -0.011 | inactive: -0.135 | inactive: 0.086 | inactive: 0.048 | inactive: 0.094 |  | inactive: 0.03 | inactive: 0.08 |  | 
26 | ALKBH6 isoform 2 (UniProt Q3KRA9) | inactive: -0.097 |  |  | inactive: -0.032 |  | inactive: 0.037 | inactive: 0.058 | inactive: -0.034 | inactive: -0.022 | inactive: 0.042
27 | AMIGO2 (UniProt Q86SJ2) | inactive: 0.034 |  |  |  |  |  | inactive: -0.103 | inactive: -0.093 |  | 
28 | ANXA13 isoform 2 (UniProt P27216) | inactive: -0.129 | inactive: -0.071 | inactive: 0.091 |  | inactive: -0.035 | inactive: 0.131 | inactive: -0.179 | inactive: 0.106 | inactive: 0.004 | inactive: -0.001
29 | ANKRD11 (UniProt Q6UB99) | inactive: 0.054 |  |  | inactive: -0.027 |  | inactive: -0.005 | inactive: -0.046 | inactive: -0.337 | inactive: 0.161 | inactive: 0.094
30 | AP2S1 (UniProt M0QZ21) |  | inactive: 0.067 | inactive: -0.038 |  | inactive: -0.081 |  | inactive: -0.167 | inactive: -0.276 |  | 
31 | ANKRD29 (UniProt Q8N6D5) | inactive: 0.344 | inactive: 0.024 | inactive: 0.158 | inactive: 0.189 | inactive: -0.016 |  | inactive: -0.22 | inactive: 0.145 | inactive: 0.059 | inactive: -0.047
32 | ANAPC13 (UniProt Q9BS18) | inactive: -0.084 |  |  | inactive: -0.012 |  |  |  |  |  | 
33 | ANKH (UniProt Q9HCJ1) | inactive: 0.068 | inactive: -0.089 |  | inactive: 0.069 | inactive: -0.072 | inactive: 0.016 |  |  |  | inactive: 0.044
